Data as given in PubChem BioAssay AID1259405 (NCATS, 2018).

- Assay: 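Mouse-designed siRNAs used to find CHO productivity engineering targets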 (primary screen)
- Cells: Chinese hamster CHO-K1 ovary cells with stable secreted eGFP expression
- Reagents: single siRNA against mouse genes, 0.8 pmol siRNA per well (2 µl of 400 nM stock)
- Duration: 3 days
- Measurement: 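Per-well intracellular GFP measured by laser scanning cytometry, plus viability from ATP luminescence, each relative to plate median of non-targeting control wells, in %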
- Direction: GFP, % of control: higher = more GFP per well, higher productivity; viability (ATP), % of control: higher = more viable cells (more ATP)
- Hit rule: 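a knock-down is called active if GFP reaches 120% or more of non-targeting control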
The whole screen tested about 50,000 reagents; this is an unselected part. Over the whole deposit, about 4,000 (8%) were called active. 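Mouse siRNA library applied to hamster cells; one well for each siRNA.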 Reagents against one gene are numbered here.

The first 6 records, to show the layout:
Gene,siRNA no.,"GFP, % of control","viability (ATP), % of control",Outcome
Cfap36,1,71.9,78.9,inactive
Cfap36,2,70.2,63.9,inactive
Cfap36,3,105,120,inactive
Cln6,1,47,81,inactive
Cln6,2,121,71.4,active
Cln6,3,94,93.2,inactive

The listing, from the first entry:
Gene,siRNA no.,"GFP, % of control","viability (ATP), % of control",Outcome
Cfap36,1,71.9,78.9,inactive
Cfap36,2,70.2,63.9,inactive
Cfap36,3,105,120,inactive
Cln6,1,47,81,inactive
Cln6,2,121,71.4,active
Cln6,3,94,93.2,inactive
Ctrc,1,102,101,inactive
Ctrc,2,50.8,59.2,inactive
Ctrc,3,45.2,54.3,inactive
Cend1,1,50.3,61.9,inactive
Cend1,2,96,86,inactive
Cend1,3,68.5,92.6,inactive
Fam124b,1,22.4,36,inactive
Fam124b,2,62.3,73.7,inactive
Fam124b,3,75.8,76.4,inactive
Syncrip,1,66.9,70,inactive
Syncrip,2,86.2,98.6,inactive
Efcab6,1,30,48.3,inactive
Efcab6,2,28.6,38.6,inactive
Efcab6,3,113,122,inactive
Trpv4,1,175,117,active
Trpv4,2,37.6,42.9,inactive
Trpv4,3,81.8,58.5,inactive
Arsj,1,65.3,52.2,inactive
Arsj,2,74.9,46.4,inactive
Arsj,3,71.6,125,inactive
Ist1,1,69.9,97.1,inactive
Ist1,2,41.1,31.5,inactive
Ist1,3,65.3,65,inactive
Lars2,1,73.5,81,inactive
Lars2,2,69.7,77.2,inactive
Or7a42,1,45.6,46.9,inactive
Or7a42,2,66.8,74.3,inactive
Or7a42,3,68.8,71.9,inactive
Cul4b,1,90.7,85.4,inactive
Cul4b,2,85.3,61.8,inactive
Cul4b,3,73.8,79,inactive
Or2z2,1,128,63.5,active
Or2z2,2,133,94.3,active
Or2z2,3,48,105,inactive
Cog7,1,65.4,91.4,inactive
Cog7,2,55.8,80.1,inactive
Cog7,3,53.4,82.5,inactive
Gak,1,82.4,30.7,inactive
Gak,2,102,93.3,inactive
Gak,3,87.1,114,inactive
Rorb,1,107,41.9,inactive
Rorb,2,78.6,71.4,inactive
Rorb,3,82.5,68.2,inactive
Dynlrb2,1,60.8,46.8,inactive
Dynlrb2,2,89.3,98.3,inactive
Tex19.1,1,87.7,83.3,inactive
Tex19.1,2,135,127,active
Tex19.1,3,152,150,active
Olfml2b,1,173,77.9,active
Olfml2b,2,51.2,60.9,inactive
Olfml2b,3,90.4,114,inactive
Nmral1,1,91.4,91.7,inactive
Nmral1,2,65.5,77.1,inactive
Nmral1,3,67,102,inactive
Or5ar1,1,82.2,81.8,inactive
Or5ar1,2,66.9,82.4,inactive
Or5ar1,3,64.6,75.9,inactive
Batf2,1,87.7,75.1,inactive
Batf2,2,103,34.5,inactive
Batf2,3,110,114,inactive
Ccdc33,1,57.6,68.3,inactive
Ccdc33,2,62.2,56.4,inactive
Ccdc33,3,114,55.6,inactive
L2hgdh,1,64.5,82.3,inactive
L2hgdh,2,77.5,60.9,inactive
L2hgdh,3,83,100,inactive
Dync2li1,1,80,71.6,inactive
Dync2li1,2,67.1,92.6,inactive
Dync2li1,3,85.2,114,inactive
Galnt13,1,150,122,active
Galnt13,2,144,148,active
Galnt13,3,83.8,111,inactive
Or1m1,1,56.2,46.3,inactive
Or1m1,2,79.2,26.5,inactive
Or1m1,3,57.1,58.8,inactive
Mest,1,54.9,71.5,inactive
Mest,2,76.2,75.6,inactive
Mest,3,54.5,52.4,inactive
